Results: US20260026504A1, “COMPOUND […] STRUCTURE, APPLICATION, AND INSECTICIDE” (Anhui Shengfeng Biochemical Co., Ltd, priority 2022, published 2026)
Some of these results come from one statement about several compounds together.

System: diamondback moth (Plutella xylostella) second instar larvae
Test: Toxicity to diamondback moth larvae by the leaf-dipping method
Type: in vivo
Settings: concentration of 0.25 ppm
Procedure: Determining the toxicity activity of part of compounds on diamondback moth (Plutella xylostella) instar larvae by the leafdipping method.
The test agents of the compounds in Table 2 were weighed out accurately with an electronic analytical balance, and the original drug was dissolved in a 10000 ppm solution with dimethyl sulfoxide as the solvent and then diluted with 0.1% of Triton solution to 1 ppm and 0.25 ppm solutions. Taking the cabbage not contacted with the liquid medicine, and cutting the leaves into 6 cm-diameter circular leaves. Soaking the leaves in the prepared liquid medicine for 15 seconds, taking out and drying, and placing the leaves into 6 cm culture dishes, wherein 1 cabbage leaf is placed in each culture dish. The same standard second instar larvae were placed in petri dishes with 10 heads per dish and 4 replicates per concentration for a total of 40 heads. […]
The mortality is calculated according to the following formula 1, then the corrected mortality is calculated according to the formula 2, and finally the classification is carried out according to the corrected mortality value and the rating standard shown in the table 2, and the specific results are shown in the tables 3 and 4. […]

For `Cc1cc(C2=NOC(c3cc(Cl)cc(Cl)c3)(C(F)(F)F)C2)ccc1C(=O)Nc1ccn(C)n1` (stereo not shown) [Compound K1, reference compound], the “lethality to Plutella xylostella” value was “less than 50%”.
